According to article PMC11111408, “Concurrent inhibition of oncogenic and wild-type RAS-GTP for cancer therapy” (Nature, 2024):
Further values from the same series stand in other lists.

Test system: PRISM DNA-barcoded human tumour cell lines
Experiment: PRISM pooled cell viability assay;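 further: 8 threefold dilutions from 10 µM with 5 days of exposure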
Assay type: cell-based
Set-up: Area under the curve (AUC): scale not given here
Settings: for PRISM AUC: KRAS MUT
Protocol: Cells were then lysed in TCL mRNA lysis buffer, and then PCR with reverse transcription was performed. Detection of the barcodes and univariate and multivariate analysis was then performed as previously described. Data analysis is described in the Supplementary Methods. Up-to-date code for our analysis is at the github link: https://github.com/cmap/dockerized_mts.
For every gene with non-silent mutations in at least four cell-lines, we compared the AUC values between cells with and without those mutations using a t-test. This analysis was carried out for: (i) the full dataset; (ii) excluding cell lines with non-silent KRAS mutations; and (iii) excluding cell lines that have either KRAS or NRAS non-silent mutations.

CCn1c(-c2cc(N3CCN(C4CC4)CC3)cnc2[C@H](C)OC)c2c3cc(ccc31)-c1csc(n1)C[C@H](NC(=O)[C@H]1[C@@H]3COC[C@@H]31)C(=O)N1CCC[C@H](N1)C(=O)OCC(C)(C)C2 [RMC-7977]
Area under the curve (AUC) (SKNDZ_AUTONOMIC_GANGLIA): 0.8385
Area under the curve (AUC) (SKNEP1_BONE): 0.8198
Area under the curve (AUC) (SKNFI_AUTONOMIC_GANGLIA): 0.8251
Area under the curve (AUC) (SKNMC_BONE): 0.8161
Area under the curve (AUC) (SKNO1_HAEMATOPOIETIC_AND_LYMPHOID_TISSUE): 0.6183
Area under the curve (AUC) (SKN_ENDOMETRIUM): 0.6569
Area under the curve (AUC) (SKOV3_OVARY): 0.8776
Area under the curve (AUC) (SKPNDW_BONE): 0.7673
Area under the curve (AUC) (SKUT1_SOFT_TISSUE): 0.8815
Area under the curve (AUC) (SMSCTR_SOFT_TISSUE): 0.4961
Area under the curve (AUC) (SNB75_CENTRAL_NERVOUS_SYSTEM): 0.694
Area under the curve (AUC) (SNGM_ENDOMETRIUM): 0.6851
Area under the curve (AUC) (SNU1_STOMACH): 0.5767
Area under the curve (AUC) (SNU46_UPPER_AERODIGESTIVE_TRACT): 0.6553
Area under the curve (AUC) (SNU61_LARGE_INTESTINE): 0.3873
Area under the curve (AUC) (SNU81_LARGE_INTESTINE): 0.7559
PRISM AUC (SNU81_LARGE_INTESTINE): 0.6432
Area under the curve (AUC) (SNU119_OVARY): 0.739
Area under the curve (AUC) (SNU182_LIVER): 1
Area under the curve (AUC) (SNU201_CENTRAL_NERVOUS_SYSTEM): 0.8331
Area under the curve (AUC) (SNU213_PANCREAS): 0.3984
Area under the curve (AUC) (SNU216_STOMACH): 0.6411
Area under the curve (AUC) (SNU245_BILIARY_TRACT): 0.7593
Area under the curve (AUC) (SNU308_BILIARY_TRACT): 0.6306
Area under the curve (AUC) (SNU398_LIVER): 1
Area under the curve (AUC) (SNU407_LARGE_INTESTINE): 0.6585
Area under the curve (AUC) (SNU410_PANCREAS): 0.7436
Area under the curve (AUC) (SNU423_LIVER): 0.737
Area under the curve (AUC) (SNU449_LIVER): 0.8586
Area under the curve (AUC) (SNU466_CENTRAL_NERVOUS_SYSTEM): 0.5354
Area under the curve (AUC) (SNU489_CENTRAL_NERVOUS_SYSTEM): 0.785
Area under the curve (AUC) (SNU601_STOMACH): 0.5691
Area under the curve (AUC) (SNU638_STOMACH): 0.6681
Area under the curve (AUC) (SNU668_STOMACH): 0.6545
PRISM AUC (SNU668_STOMACH): 0.3673
Area under the curve (AUC) (SNU685_ENDOMETRIUM): 0.8566
Area under the curve (AUC) (SNU719_STOMACH): 0.5396
Area under the curve (AUC) (SNU761_LIVER): 0.9916
Area under the curve (AUC) (SNU840_OVARY): 0.5807
Area under the curve (AUC) (SNU869_BILIARY_TRACT): 0.586
Area under the curve (AUC) (SNU878_LIVER): 0.7474
Area under the curve (AUC) (SNU886_LIVER): 0.6111
Area under the curve (AUC) (SNU899_UPPER_AERODIGESTIVE_TRACT): 0.3497
Area under the curve (AUC) (SNU1041_UPPER_AERODIGESTIVE_TRACT): 0.5448
Area under the curve (AUC) (SNU1066_UPPER_AERODIGESTIVE_TRACT): 0.6233
Area under the curve (AUC) (SNU1076_UPPER_AERODIGESTIVE_TRACT): 0.4828
Area under the curve (AUC) (SNU1077_ENDOMETRIUM): 0.8899
Area under the curve (AUC) (SNU1079_BILIARY_TRACT): 0.9007
Area under the curve (AUC) (SNU1105_CENTRAL_NERVOUS_SYSTEM): 0.6758
Area under the curve (AUC) (SNU1196_BILIARY_TRACT): 0.9396
Area under the curve (AUC) (SNU1214_UPPER_AERODIGESTIVE_TRACT): 0.4569
Area under the curve (AUC) (SNU1544_LARGE_INTESTINE): 0.6554
Area under the curve (AUC) (SNU2372_BREAST): 0.9941
Area under the curve (AUC) (SNUC2A_LARGE_INTESTINE): 0.9585
Area under the curve (AUC) (SNUC4_LARGE_INTESTINE): 0.7966
Area under the curve (AUC) (SQ1_LUNG): 0.584
Area under the curve (AUC) (SR786_HAEMATOPOIETIC_AND_LYMPHOID_TISSUE): 0.6924
Area under the curve (AUC) (SSP25_BILIARY_TRACT): 0.8438
Area under the curve (AUC) (STM9101_SOFT_TISSUE): 0.9549
Area under the curve (AUC) (SUDHL1_HAEMATOPOIETIC_AND_LYMPHOID_TISSUE): 0.4461
Area under the curve (AUC) (SUDHL4_HAEMATOPOIETIC_AND_LYMPHOID_TISSUE): 0.7862
Area under the curve (AUC) (SUDHL8_HAEMATOPOIETIC_AND_LYMPHOID_TISSUE): 0.977
Area under the curve (AUC) (SUIT2_PANCREAS): 0.7945
Area under the curve (AUC) (SUM149PT_BREAST): 0.4921
Area under the curve (AUC) (SUM159PT_BREAST): 0.7529
Area under the curve (AUC) (SUPB15_HAEMATOPOIETIC_AND_LYMPHOID_TISSUE): 0.6409
Area under the curve (AUC) (SUPT11_HAEMATOPOIETIC_AND_LYMPHOID_TISSUE): 0.9799
Area under the curve (AUC) (SUSA_TESTIS): 0.5526
Area under the curve (AUC) (SW13_ADRENAL_CORTEX): 0.6974
Area under the curve (AUC) (SW156_KIDNEY): 0.986
Area under the curve (AUC) (SW480_LARGE_INTESTINE): 0.4468
Area under the curve (AUC) (SW620_LARGE_INTESTINE): 0.3266
Area under the curve (AUC) (SW626_LARGE_INTESTINE): 0.3595
Area under the curve (AUC) (SW756_CERVIX): 0.4462
Area under the curve (AUC) (SW780_URINARY_TRACT): 0.6339
Area under the curve (AUC) (SW837_LARGE_INTESTINE): 0.6779
PRISM AUC (SW837_LARGE_INTESTINE): 0.5067
Area under the curve (AUC) (SW900_LUNG): 0.55
Area under the curve (AUC) (SW948_LARGE_INTESTINE): 0.498
PRISM AUC (SW948_LARGE_INTESTINE): 0.2935
Area under the curve (AUC) (SW954_CERVIX): 0.5286
Area under the curve (AUC) (SW1088_CENTRAL_NERVOUS_SYSTEM): 0.6827
Area under the curve (AUC) (SW1116_LARGE_INTESTINE): 0.8027
PRISM AUC (SW1116_LARGE_INTESTINE): 0.4782
Area under the curve (AUC) (SW1271_LUNG): 0.6501
Area under the curve (AUC) (SW1353_BONE): 0.8863
Area under the curve (AUC) (SW1463_LARGE_INTESTINE): 0.4218
PRISM AUC (SW1463_LARGE_INTESTINE): 0.1279
Area under the curve (AUC) (SW1573_LUNG): 0.5448
PRISM AUC (SW1573_LUNG): 0.4695
Area under the curve (AUC) (SW1710_URINARY_TRACT): 0.8106
Area under the curve (AUC) (SW1783_CENTRAL_NERVOUS_SYSTEM): 0.7369
Area under the curve (AUC) (SW1990_PANCREAS): 0.7343
Area under the curve (AUC) (T3M5_THYROID): 0.8637
Area under the curve (AUC) (T3M10_LUNG): 0.8063
Area under the curve (AUC) (T24_URINARY_TRACT): 0.7321
Area under the curve (AUC) (T47D_BREAST): 0.8074
Area under the curve (AUC) (T84_LARGE_INTESTINE): 0.5784
Area under the curve (AUC) (T98G_CENTRAL_NERVOUS_SYSTEM): 0.7924
Area under the curve (AUC) (TALL1_HAEMATOPOIETIC_AND_LYMPHOID_TISSUE): 0.5931
Area under the curve (AUC) (TANOUE_HAEMATOPOIETIC_AND_LYMPHOID_TISSUE): 0.5869
Area under the curve (AUC) (TASK1_CENTRAL_NERVOUS_SYSTEM): 0.8494
Area under the curve (AUC) (TC32_BONE): 0.7126
Area under the curve (AUC) (TC71_BONE): 0.7472
Area under the curve (AUC) (TC106_BONE): 0.7909
Area under the curve (AUC) (TC205_BONE): 0.8134
Area under the curve (AUC) (TCCPAN2_PANCREAS): 0.603
Area under the curve (AUC) (TCCSUP_URINARY_TRACT): 0.6748
Area under the curve (AUC) (TE1_OESOPHAGUS): 0.6956
Area under the curve (AUC) (TE4_OESOPHAGUS): 0.5647
Area under the curve (AUC) (TE5_OESOPHAGUS): 0.5559
Area under the curve (AUC) (TE6_OESOPHAGUS): 0.5629
Area under the curve (AUC) (TE8_OESOPHAGUS): 0.5244
Area under the curve (AUC) (TE10_OESOPHAGUS): 0.6223
Area under the curve (AUC) (TE11_OESOPHAGUS): 0.7749
Area under the curve (AUC) (TE14_OESOPHAGUS): 0.6224
Area under the curve (AUC) (TE15_OESOPHAGUS): 0.2541
Area under the curve (AUC) (TE617T_SOFT_TISSUE): 0.3935
PRISM AUC (TEN_ENDOMETRIUM): 0.7622
